This is one part of the list.
Compound: CC1Cc2ccccc2N1C(=O)C1CCCN(C1)C(=O)CCl (mixture of isomers) [TRIM25 ligand 11 (diastereomer mixture)]
Test: probe-labelled cysteine peptide fold change vs DMSO (competition) (log2 fold change); higher = less target engagement (more negative = stronger competition)
Conditions: THP-1, incubation time: 4 h
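Note: competitive chemoproteomic profiling in live THP-1 cells with an iodoacetamide desthiobiotin (IA-DTB) probe, comparing probe-labelled peptide intensities in compound-treated cells against DMSO-treated controls.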

Chains of the proteins cited; added tags and fusions are not shown. Lines headed by an entry give the natural chain unless they say otherwise; changes in a name come on top.
UniProt Q9UBU9: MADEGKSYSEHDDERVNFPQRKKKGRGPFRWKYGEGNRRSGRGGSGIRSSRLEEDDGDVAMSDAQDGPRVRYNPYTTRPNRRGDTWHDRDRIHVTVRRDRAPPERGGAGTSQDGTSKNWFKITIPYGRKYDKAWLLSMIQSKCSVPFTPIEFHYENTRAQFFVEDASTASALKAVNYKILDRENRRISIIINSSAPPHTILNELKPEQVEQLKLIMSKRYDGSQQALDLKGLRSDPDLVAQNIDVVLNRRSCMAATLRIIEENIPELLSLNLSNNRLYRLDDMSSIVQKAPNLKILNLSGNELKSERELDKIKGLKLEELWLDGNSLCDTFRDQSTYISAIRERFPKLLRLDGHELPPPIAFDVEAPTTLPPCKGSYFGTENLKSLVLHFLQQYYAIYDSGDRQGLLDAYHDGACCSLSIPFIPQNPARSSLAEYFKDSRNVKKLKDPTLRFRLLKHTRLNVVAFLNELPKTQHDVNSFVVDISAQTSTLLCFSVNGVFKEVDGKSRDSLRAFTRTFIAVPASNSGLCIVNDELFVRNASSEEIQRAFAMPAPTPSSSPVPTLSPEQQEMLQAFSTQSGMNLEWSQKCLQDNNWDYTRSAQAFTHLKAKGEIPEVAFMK
UniProt O43809, whole entry, looked up: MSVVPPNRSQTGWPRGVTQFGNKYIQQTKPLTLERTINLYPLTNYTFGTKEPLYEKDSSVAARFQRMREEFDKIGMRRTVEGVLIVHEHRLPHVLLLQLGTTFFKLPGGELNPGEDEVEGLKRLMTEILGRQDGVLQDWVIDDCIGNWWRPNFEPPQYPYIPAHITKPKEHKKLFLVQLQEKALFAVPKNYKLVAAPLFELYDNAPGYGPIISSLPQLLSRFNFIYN
UniProt Q01968: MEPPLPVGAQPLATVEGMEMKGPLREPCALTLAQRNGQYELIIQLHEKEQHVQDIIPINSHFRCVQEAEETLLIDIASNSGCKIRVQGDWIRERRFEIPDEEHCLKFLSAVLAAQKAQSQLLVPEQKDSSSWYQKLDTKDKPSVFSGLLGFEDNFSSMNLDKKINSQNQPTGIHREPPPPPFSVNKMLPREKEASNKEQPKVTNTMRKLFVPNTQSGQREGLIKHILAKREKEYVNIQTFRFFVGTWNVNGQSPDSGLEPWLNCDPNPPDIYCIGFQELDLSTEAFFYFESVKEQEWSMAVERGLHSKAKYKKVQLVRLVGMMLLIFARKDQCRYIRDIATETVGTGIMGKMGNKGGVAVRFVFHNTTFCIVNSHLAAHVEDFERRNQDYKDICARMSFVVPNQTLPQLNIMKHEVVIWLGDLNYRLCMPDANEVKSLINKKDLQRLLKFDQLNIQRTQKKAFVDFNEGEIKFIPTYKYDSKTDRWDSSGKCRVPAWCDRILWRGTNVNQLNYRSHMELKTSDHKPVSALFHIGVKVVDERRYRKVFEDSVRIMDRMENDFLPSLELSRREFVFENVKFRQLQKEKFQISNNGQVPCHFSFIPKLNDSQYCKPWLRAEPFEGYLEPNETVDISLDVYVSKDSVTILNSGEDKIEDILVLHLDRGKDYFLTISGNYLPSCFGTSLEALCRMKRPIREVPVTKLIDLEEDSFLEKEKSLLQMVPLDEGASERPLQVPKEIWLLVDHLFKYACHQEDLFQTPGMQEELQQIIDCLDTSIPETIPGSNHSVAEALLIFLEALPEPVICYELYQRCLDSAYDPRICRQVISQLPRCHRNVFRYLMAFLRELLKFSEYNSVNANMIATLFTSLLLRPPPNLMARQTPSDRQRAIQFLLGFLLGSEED
UniProt Q9Y5Y2: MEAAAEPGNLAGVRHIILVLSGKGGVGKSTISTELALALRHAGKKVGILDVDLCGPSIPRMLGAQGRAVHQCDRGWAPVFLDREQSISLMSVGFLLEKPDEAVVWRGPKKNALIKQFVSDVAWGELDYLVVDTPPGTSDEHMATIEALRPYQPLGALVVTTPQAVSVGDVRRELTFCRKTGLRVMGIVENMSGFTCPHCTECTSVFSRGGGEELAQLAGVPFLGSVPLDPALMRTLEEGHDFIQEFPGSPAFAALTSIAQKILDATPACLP
UniProt Q8NFH3: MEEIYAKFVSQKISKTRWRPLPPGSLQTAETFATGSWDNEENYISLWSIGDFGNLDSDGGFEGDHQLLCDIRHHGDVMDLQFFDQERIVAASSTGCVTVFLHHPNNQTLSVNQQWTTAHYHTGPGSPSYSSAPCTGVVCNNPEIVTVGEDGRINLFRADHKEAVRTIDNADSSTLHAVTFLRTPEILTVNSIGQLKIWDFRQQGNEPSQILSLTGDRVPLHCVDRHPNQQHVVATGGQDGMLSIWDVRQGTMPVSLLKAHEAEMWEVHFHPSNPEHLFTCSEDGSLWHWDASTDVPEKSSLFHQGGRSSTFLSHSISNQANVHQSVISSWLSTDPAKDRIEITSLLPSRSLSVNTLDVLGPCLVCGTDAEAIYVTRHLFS
UniProt Q6PK18: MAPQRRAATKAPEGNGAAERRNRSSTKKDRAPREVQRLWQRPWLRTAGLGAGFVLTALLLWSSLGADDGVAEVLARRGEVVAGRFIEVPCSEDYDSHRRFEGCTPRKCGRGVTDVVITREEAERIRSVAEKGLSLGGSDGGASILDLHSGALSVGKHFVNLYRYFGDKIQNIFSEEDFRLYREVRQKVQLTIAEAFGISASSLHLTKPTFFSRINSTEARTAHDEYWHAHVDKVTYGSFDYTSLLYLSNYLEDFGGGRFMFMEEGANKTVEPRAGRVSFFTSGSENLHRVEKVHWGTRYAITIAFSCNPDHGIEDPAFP
UniProt Q5TFE4: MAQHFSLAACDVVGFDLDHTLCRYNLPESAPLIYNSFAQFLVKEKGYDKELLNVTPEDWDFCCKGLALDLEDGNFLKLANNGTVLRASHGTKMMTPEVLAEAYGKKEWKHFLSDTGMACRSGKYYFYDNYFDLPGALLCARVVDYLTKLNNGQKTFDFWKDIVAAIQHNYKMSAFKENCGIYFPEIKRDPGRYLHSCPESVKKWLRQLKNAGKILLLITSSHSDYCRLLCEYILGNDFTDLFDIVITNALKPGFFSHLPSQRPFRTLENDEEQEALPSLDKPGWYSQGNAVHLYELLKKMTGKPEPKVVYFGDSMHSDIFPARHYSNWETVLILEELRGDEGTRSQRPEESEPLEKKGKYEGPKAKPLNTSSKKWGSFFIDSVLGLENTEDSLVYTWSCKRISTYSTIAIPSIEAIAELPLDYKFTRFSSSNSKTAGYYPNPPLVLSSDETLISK
UniProt Q99567: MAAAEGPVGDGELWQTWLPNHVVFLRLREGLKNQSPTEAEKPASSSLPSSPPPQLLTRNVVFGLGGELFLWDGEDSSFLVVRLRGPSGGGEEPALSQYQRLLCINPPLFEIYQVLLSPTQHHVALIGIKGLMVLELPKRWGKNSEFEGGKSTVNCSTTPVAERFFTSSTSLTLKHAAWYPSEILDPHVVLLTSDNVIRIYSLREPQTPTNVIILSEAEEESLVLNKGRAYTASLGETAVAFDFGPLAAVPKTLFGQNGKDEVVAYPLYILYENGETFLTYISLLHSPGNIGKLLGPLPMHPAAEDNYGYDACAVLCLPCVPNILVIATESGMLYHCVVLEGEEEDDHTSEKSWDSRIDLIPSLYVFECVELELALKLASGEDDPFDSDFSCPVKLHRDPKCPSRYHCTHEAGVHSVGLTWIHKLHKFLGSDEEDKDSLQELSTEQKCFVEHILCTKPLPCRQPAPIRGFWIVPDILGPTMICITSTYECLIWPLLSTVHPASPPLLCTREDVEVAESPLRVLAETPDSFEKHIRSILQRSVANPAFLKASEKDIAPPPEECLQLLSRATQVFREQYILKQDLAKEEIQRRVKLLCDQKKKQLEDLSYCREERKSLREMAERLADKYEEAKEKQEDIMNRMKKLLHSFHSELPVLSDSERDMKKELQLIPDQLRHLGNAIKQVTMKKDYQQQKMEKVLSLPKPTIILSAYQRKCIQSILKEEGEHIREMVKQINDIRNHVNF
UniProt Q8NFH4: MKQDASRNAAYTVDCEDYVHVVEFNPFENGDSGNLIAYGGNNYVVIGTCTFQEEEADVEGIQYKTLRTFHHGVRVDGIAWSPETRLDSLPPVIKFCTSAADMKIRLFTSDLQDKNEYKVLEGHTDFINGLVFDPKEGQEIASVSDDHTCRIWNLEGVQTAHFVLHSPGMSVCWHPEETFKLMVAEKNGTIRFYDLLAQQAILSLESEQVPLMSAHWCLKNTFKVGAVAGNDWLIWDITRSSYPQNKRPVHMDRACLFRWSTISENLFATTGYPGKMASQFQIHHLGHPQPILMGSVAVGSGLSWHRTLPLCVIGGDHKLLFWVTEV
UniProt Q96RS6: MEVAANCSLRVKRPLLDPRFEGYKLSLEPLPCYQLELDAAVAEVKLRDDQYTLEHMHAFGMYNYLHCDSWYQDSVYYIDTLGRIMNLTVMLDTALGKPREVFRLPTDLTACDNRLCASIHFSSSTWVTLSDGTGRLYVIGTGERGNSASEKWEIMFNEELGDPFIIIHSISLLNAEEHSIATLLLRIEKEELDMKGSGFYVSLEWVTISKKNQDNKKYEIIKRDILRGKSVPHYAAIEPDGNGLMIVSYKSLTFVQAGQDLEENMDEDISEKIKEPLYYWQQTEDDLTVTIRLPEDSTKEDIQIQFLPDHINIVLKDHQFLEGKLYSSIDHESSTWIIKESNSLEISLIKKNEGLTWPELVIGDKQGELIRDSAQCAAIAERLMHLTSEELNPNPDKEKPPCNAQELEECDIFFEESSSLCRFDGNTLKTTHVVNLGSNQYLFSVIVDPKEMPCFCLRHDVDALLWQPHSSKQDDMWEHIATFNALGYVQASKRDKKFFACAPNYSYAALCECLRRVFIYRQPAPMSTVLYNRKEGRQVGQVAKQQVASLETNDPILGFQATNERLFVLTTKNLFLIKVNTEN
UniProt Q5SRE5: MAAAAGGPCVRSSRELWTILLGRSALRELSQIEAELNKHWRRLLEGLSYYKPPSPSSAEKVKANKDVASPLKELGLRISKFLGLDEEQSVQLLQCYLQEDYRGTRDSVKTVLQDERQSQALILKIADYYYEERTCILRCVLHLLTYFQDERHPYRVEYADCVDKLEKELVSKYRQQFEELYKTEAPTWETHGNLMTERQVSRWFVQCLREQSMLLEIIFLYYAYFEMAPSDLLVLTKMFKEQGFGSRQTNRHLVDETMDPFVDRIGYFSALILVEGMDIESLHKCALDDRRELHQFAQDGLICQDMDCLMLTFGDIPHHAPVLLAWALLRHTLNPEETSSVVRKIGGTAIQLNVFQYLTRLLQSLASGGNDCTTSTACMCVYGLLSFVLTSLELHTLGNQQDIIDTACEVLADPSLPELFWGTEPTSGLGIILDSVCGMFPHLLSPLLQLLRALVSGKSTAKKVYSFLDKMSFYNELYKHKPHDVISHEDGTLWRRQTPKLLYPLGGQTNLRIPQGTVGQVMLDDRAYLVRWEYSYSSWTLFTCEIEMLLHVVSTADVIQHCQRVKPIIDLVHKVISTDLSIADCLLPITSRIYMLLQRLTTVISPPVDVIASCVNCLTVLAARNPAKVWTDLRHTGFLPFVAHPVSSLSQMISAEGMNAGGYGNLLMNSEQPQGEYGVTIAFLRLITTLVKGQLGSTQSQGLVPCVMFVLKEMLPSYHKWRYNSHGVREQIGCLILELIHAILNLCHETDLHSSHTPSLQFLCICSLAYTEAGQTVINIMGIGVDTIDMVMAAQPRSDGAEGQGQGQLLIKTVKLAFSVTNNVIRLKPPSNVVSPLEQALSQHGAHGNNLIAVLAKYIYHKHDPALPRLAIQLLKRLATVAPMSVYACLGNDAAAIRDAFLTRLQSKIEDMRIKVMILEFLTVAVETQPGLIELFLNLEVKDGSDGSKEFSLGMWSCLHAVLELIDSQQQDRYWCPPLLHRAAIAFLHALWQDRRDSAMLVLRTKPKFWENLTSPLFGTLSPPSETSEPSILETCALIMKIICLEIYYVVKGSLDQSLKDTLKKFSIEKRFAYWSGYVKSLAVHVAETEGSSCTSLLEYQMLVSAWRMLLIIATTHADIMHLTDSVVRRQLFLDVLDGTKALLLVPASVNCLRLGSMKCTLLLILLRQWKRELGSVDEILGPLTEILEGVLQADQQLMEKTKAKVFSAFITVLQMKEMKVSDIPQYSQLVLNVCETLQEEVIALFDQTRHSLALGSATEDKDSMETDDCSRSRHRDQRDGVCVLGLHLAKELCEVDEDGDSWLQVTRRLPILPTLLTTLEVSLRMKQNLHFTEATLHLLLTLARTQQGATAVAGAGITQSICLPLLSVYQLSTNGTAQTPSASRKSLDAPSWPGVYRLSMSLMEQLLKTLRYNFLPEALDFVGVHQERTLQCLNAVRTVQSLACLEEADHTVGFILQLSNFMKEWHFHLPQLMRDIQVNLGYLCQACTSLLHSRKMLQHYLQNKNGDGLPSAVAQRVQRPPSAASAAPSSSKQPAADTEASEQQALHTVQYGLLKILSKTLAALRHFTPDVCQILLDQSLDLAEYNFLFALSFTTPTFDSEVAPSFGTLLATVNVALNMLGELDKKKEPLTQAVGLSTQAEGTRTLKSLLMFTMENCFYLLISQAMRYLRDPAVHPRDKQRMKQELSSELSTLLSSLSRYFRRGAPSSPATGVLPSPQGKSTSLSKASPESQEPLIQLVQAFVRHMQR

| Target | probe-labelled cysteine peptide fold change (10 µM) | probe-labelled cysteine peptide fold change (50 µM) |
| --- | --- | --- |
| NXF1_Q9UBU9_588_CLQDNNWDYTR (UniProt Q9UBU9) | 0.125 | 0.13 |
| NUP205_Q92621_1662_CQDVSAGSLQELALLTGIISK (UniProt Q92621) | 0.0616 | -0.0523 |
| NUDT5_Q9UKK9_76_TLHYECIVLVK (UniProt Q9UKK9) | 0.0411 | 0.00719 |
| NUDT21_O43809_144_QDGVLQDWVIDDCIGNWWR (UniProt O43809) | 0.209 | 0.458 |
| NUP205_Q92621_237_QSLAESLFAWACQSPLGKEDTLLLIGHLER (UniProt Q92621) | -0.0149 | 0.0914 |
| OCRL_Q01968_104_RFEIPDEEHCLK (UniProt Q01968) | -0.0187 | -0.0562 |
| NUBP2_Q9Y5Y2_177_RELTFCR (UniProt Q9Y5Y2) | -0.139 | 0.0028 |
| NUP43_Q8NFH3_362_SLSVNTLDVLGPCLVCGTDAEAIYVTR (UniProt Q8NFH3) | -0.244 | -0.109 |
| NUP160_Q12769_605_DVICLIK (UniProt Q12769) | 0.53 | 0.432 |
| NUP107_P57740_749_EHLCIR (UniProt P57740) | 0.128 | 0.0884 |
| OCIAD2_Q56VL3_130+137_HCLLTCEECK (UniProt Q56VL3) | 0.126 | -0.0386 |
| OARD1_Q9Y530_24_GDLFACPK (UniProt Q9Y530) | -0.0589 | 0.131 |
| OGFOD3_Q6PK18_90_FIEVPCSEDYDSHR (UniProt Q6PK18) | -0.0633 | -0.115 |
| NUDT19_A8MXV4_220_RFDTAFFLCCLR (UniProt A8MXV4) | 0.137 | 0.168 |
| NUDT14_O95848_127_EAWEECGYHLAPSDLRR (UniProt O95848) | -0.253 | -0.0711 |
| NUS1_Q96E22_184_YSPEFANSNDKDDQVLNCHLAVK (UniProt Q96E22) | -0.0668 | -0.00994 |
| NT5DC1_Q5TFE4_62+63_ELLNVTPEDWDFCCK (UniProt Q5TFE4) | -0.0575 | 0.045 |
| NUDT6_P53370_44_NPPVGACDLQGELDR (UniProt P53370) | 0.195 | -0.149 |
| NUDT16L1_Q9BRJ7_171_CQLLFALK (UniProt Q9BRJ7) | -0.0516 | 0.122 |

| Target | probe-labelled cysteine peptide fold change (10 µM) | probe-labelled cysteine peptide fold change (50 µM) |
| --- | --- | --- |
| NUP88_Q99567_407_YHCTHEAGVHSVGLTWIHK (UniProt Q99567) | 0.116 | -0.154 |
| OGDH_Q02218_507_DVVVDLVCYR (UniProt Q02218) | 0.0554 | 0.154 |
| NUP160_Q12769_1124+1131_QGNCYLAALNCLR (UniProt Q12769) | -0.0631 | 0.114 |
| NUP37_Q8NFH4_96_FCTSAADMK (UniProt Q8NFH4) | -0.00249 | 0.0547 |
| OCRL_Q01968_104_FEIPDEEHCLK (UniProt Q01968) | -0.00148 | 0.0505 |
| NUDT9_Q9BW91_347_DAHWSEDSEADCHAL (UniProt Q9BW91) | -0.0365 | -0.273 |
| NUP205_Q92621_698_CEEYPLTR (UniProt Q92621) | 0.137 | 0.196 |
| NXF1_Q9UBU9_328_LEELWLDGNSLCDTFR (UniProt Q9UBU9) | 0.301 | 0.17 |
| NUP205_Q92621_530_MLQGLANGPQCAHYCFSLLK (UniProt Q92621) | 0.0757 | 0.0958 |
| NUDCD1_Q96RS6_111_EVFRLPTDLTACDNR (UniProt Q96RS6) | -0.0867 | 0.0344 |
| NUP160_Q12769_1131_QGNCYLAALNCLR (UniProt Q12769) | 0.221 | 0.0848 |
| NUDCD3_Q8IVD9_260_CVLVNLSK (UniProt Q8IVD9) | 0.0274 | 0.0771 |
| NUP160_Q12769_558_FYACCLQYQEALSHPLALHLNPHTNMVCLLK (UniProt Q12769) | 0.0527 | 0.144 |
| OAS3_Q9Y6K5_850_AQLEACQQER (UniProt Q9Y6K5) | 0.268 | 0.174 |
| NUMA1_Q14980_1673_EAEQTCR (UniProt Q14980) | -0.0221 | 0.00328 |
| NUP210_Q8TEM1_543_VYVIEPHSMEFAPCQVEAR (UniProt Q8TEM1) | -0.131 | -0.0586 |
| NUP188_Q5SRE5_1270_DSMETDDCSR (UniProt Q5SRE5) | -0.000917 | -0.14 |
| NT5DC1_Q5TFE4_22_AQHFSLAACDVVGFDLDHTLCR (UniProt Q5TFE4) | 0.000262 | 0.0204 |

Fetched one by one from above:

| Target | probe-labelled cysteine peptide fold change (10 µM) | probe-labelled cysteine peptide fold change (50 µM) |
| --- | --- | --- |
| NUP188_Q5SRE5_1270_DSMETDDCSR (UniProt Q5SRE5) | -0.000917 | -0.14 |
| NUP160_Q12769_558_FYACCLQYQEALSHPLALHLNPHTNMVCLLK (UniProt Q12769) | 0.0527 | 0.144 |

Reference: the supplement of paper PMC12067093, “Discovery and optimisation of a covalent ligand for TRIM25 and its application to targeted protein ubiquitination” (Chemical Science, 2025)
